Experimental data reported in article PMC11018839, “ANKFY1 bridges ATG2A-mediated lipid transfer from endosomes to phagophores” (Cell Discovery, 2024).
Read-outs that look alike come from different tables or passages of the source. These are yes or no findings as the source states them, for the method shown. In cells and extracts the contact can be indirect. A yes stands for co-enrichment or nearness to the bait. Other partners may have been found. Blank lines part the entries; values can stand above or below the molecule they belong to.

By UniProt entry, the sequences of proteins in these tests, tags left out.
UniProt Q2TAZ0: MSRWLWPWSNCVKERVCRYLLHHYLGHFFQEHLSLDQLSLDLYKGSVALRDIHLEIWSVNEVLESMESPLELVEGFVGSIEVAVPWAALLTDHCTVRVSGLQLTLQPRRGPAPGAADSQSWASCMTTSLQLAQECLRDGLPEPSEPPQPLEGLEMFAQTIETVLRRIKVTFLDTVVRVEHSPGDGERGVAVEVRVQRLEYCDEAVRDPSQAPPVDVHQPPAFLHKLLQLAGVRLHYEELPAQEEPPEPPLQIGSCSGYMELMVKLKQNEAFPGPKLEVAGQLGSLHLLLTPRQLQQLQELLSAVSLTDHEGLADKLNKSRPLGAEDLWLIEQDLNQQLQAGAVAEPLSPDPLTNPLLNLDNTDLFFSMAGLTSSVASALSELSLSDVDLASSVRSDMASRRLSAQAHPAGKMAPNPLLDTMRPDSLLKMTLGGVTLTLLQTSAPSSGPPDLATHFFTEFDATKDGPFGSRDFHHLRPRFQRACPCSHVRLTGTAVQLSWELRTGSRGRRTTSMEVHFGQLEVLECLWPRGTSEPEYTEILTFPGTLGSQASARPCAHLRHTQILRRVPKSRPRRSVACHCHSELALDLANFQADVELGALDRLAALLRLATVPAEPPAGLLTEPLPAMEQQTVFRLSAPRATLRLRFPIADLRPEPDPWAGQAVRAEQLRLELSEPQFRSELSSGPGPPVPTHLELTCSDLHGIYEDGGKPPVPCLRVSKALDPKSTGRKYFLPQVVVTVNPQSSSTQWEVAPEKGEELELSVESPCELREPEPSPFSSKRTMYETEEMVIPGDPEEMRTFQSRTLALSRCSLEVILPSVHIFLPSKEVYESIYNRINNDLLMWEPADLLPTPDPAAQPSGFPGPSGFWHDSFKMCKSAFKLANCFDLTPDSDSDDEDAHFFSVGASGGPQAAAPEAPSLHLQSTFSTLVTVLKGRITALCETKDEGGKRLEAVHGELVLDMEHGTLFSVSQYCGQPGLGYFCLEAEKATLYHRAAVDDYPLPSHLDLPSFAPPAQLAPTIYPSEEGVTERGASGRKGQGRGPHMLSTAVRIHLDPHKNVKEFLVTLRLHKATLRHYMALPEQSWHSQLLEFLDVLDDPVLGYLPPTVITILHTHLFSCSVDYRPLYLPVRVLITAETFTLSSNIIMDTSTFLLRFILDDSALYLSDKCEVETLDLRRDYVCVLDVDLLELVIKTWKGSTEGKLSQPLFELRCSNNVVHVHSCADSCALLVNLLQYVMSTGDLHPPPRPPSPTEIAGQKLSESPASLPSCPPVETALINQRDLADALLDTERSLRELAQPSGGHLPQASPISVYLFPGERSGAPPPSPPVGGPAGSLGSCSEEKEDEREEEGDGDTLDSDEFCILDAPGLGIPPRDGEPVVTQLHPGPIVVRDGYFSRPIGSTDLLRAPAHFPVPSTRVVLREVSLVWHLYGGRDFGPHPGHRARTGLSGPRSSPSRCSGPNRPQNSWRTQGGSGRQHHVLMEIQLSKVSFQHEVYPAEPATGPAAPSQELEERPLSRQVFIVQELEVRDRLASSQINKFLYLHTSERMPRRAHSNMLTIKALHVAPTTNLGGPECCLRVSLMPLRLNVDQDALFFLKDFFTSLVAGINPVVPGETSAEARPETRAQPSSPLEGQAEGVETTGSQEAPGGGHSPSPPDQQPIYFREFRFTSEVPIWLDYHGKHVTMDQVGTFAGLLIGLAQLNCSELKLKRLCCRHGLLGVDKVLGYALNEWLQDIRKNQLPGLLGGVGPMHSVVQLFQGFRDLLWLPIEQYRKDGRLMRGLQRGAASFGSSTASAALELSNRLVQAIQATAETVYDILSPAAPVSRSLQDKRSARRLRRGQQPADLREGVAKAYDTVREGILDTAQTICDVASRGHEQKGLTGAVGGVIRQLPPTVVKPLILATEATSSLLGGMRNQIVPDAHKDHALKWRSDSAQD
UniProt Q9Y484: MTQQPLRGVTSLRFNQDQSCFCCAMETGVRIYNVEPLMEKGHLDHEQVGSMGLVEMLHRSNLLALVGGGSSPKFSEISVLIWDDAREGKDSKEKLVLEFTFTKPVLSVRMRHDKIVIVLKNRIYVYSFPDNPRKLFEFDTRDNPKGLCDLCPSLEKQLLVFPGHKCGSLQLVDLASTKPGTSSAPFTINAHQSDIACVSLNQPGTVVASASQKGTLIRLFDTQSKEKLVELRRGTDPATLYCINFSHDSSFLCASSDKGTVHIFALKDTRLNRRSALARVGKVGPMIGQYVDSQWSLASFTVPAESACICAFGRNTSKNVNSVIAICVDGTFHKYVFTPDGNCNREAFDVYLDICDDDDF

Experiments:
[1] = target: ZZ-TEV-Flag-tagged ATG2A (bait of the tandem affinity purification) (human) (UniProt Q2TAZ0); experiment: affinity purification with mass spectrometry; tandem affinity purification of ZZ-TEV-Flag-ATG2A from cells that stably express it at endogenous level (1.5 ng/mL doxycycline); 20 mM Tris-HCl pH 7.5, 150 mM NaCl, 0.5% NP-40, 1 mM EDTA; eluate run on SDS-PAGE and analysed by MS; under autophagy stimulation according to the discussion
[2] = target: ZZ-TEV-Flag-tagged ATG2A (bait of the tandem affinity purification) (human) (UniProt Q2TAZ0); experiment: as above; remark: listed apart in the source

- binding [1]: binds
Molecule: WIPI4, endogenous (from UniProt Q9Y484 1-360)

- binding [2]: binds
B1: purified Flag-ANKFY1 full-length protein (natural protein, human, UniProt Q9P2R3 1-1169, looked up)
chain: MAEEEVAKLEKHLMLLRQEYVKLQKKLAETEKRCALLAAQANKESSSESFISRLLAIVADLYEQEQYSDLKIKVGDRHISAHKFVLAARSDSWSLANLSSTKELDLSDANPEVTMTMLRWIYTDELEFREDDVFLTELMKLANRFQLQLLRERCEKGVMSLVNVRNCIRFYQTAEELNASTLMNYCAEIIASHWDDLRKEDFSSMSAQLLYKMIKSKTEYPLHKAIKVEREDVVFLYLIEMDSQLPGKLNEADHNGDLALDLALSRRLESIATTLVSHKADVDMVDKSGWSLLHKGIQRGDLFAATFLIKNGAFVNAATLGAQETPLHLVALYSSKKHSADVMSEMAQIAEALLQAGANPNMQDSKGRTPLHVSIMAGNEYVFSQLLQCKQLDLELKDHEGSTALWLAVQHITVSSDQSVNPFEDVPVVNGTSFDENSFAARLIQRGSHTDAPDTATGNCLLQRAAGAGNEAAALFLATNGAHVNHRNKWGETPLHTACRHGLANLTAELLQQGANPNLQTEEALPLPKEAASLTSLADSVHLQTPLHMAIAYNHPDVVSVILEQKANALHATNNLQIIPDFSLKDSRDQTVLGLALWTGMHTIAAQLLGSGAAINDTMSDGQTLLHMAIQRQDSKSALFLLEHQADINVRTQDGETALQLAIRNQLPLVVDAICTRGADMSVPDEKGNPPLWLALANNLEDIASTLVRHGCDATCWGPGPGGCLQTLLHRAIDENNEPTACFLIRSGCDVNSPRQPGANGEGEEEARDGQTPLHLAASWGLEETVQCLLEFGANVNAQDAEGRTPIHVAISSQHGVIIQLLVSHPDIHLNVRDRQGLTPFACAMTFKNNKSAEAILKRESGAAEQVDNKGRNFLHVAVQNSDIESVLFLISVHANVNSRVQDASKLTPLHLAVQAGSEIIVRNLLLAGAKVNELTKHRQTALHLAAQQDLPTICSVLLENGVDFAAVDENGNNALHLAVMHGRLNNIRVLLTECTVDAEAFNLRGQSPLHILGQYGKENAAAIFDLFLECMPGYPLDKPDADGSTVLLLAYMKGNANLCRAIVRSGARLGVNNNQGVNIFNYQVATKQLLFRLLDMLSKEPPWCDGSYCYECTARFGVTTRKHHCRHCGRLLCHKCSTKEIPIIKFDLNKPVRVCNICFDVLTLGGVS
notes: ANKFY1, human, full length (ANKFY1-FL), N-terminal Flag tag, pCDNA4-TO vector; also called ANKFY1-FL; ANKFY1-Flag; source: 293S cells, purified (anti-Flag M2 resin, eluted with 3x Flag peptide); not shown: Flag, N-terminal, kept
